The campaign covered roughly 53,000 sequences. About 3,700 (7%) were called active.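 How the source made its calls: active means gene knockdowns whose robust z-score for IL-1 alpha signal is at least 2 or at most -2, so actives lie on both sides; inactive means the rest.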 Some of the results follow.
Assay: Components of the Cytosolic LPS Sensing Pathway: Gene Identification via Genome-wide siRNA Screen;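 further: robust z of the log signal after scaling to non-targeting control siRNA wells of the plate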
Conditions: RAW264.7 macrophages, IL-1a HTRF, actives lie on both sides, screened at 100 nM (by protocol), cells primed 5 h with Pam3CSK4 first
How it was run: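 Cells (RAW264.7, 1×10^4 per well) were transfected with siRNA at 100 nM and cultured 48h at 37 degrees C. Pam3CSK4 was added for 5 hours; LipidA transfection followed for 24 hour. IL-1a was then measured by HTRF.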

| Sequence | z-score |
| --- | --- |
| GGUCUCAAAUGAAACAAACTT against Upk3b | inactive: -1.05 |
| GGUAGAACUGGAGUAUUCUTT against Arhgap4 | inactive: 1.18 |
| GCUCUCUCCUGCGCUAAAUTT against Camta2 | inactive: 0.864 |
| CCAUUUAACCUGAUUCUGUTT against Cntn1 | inactive: -0.796 |
| GGACAACUAUGAAUUAGUGTT against Pfkp | inactive: -0.801 |
| GGUAUGAUUGAAUUUCGUGTT against Purg | inactive: -0.871 |
| GGCCCUUCAGCAGAAAAAUTT against Chmp1a | inactive: 0.256 |
| GUAUAUUACCGUCGGAAUATT against Clec4b1 | inactive: 0.581 |
| GGGAACCCUAACAACUUCGTT against Wfdc6b | inactive: -0.274 |
| GCUUAGAGCAUUUCAGUCUTT against Ncapd2 | inactive: -0.399 |
| GGUCAUUAGGAACUACACUTT against Vav3 | inactive: -0.781 |
| GGGUAUAUAAGCAGCACCATT against Rdh9 | inactive: 0.736 |
| GGAUAAGAAGUCCAAGAACTT against Pknox2 | inactive: -0.819 |
| GGAUUACGAGAAACUUGGUTT against Nmral1 | inactive: -1.55 |
| CCCUGAACAAUCUGCUACATT against Enkd1 | inactive: -1.17 |
| GGCUUUGAAAGUUCUUCAATT against Nkrf | inactive: 0.548 |
| CGCUGAAAUGGUGAAUAAATT against Recql | inactive: -0.0529 |
| GGAUAAGGACCUCUUCUCUTT against Ubl7 | inactive: -1.41 |
| GGAGUAUGCUGUCAAAAUCTT against Mknk1 | inactive: 0.259 |
| GGCAAGGACCCUGACCUAUTT against Ccr4 | inactive: -1.08 |
| CCGCACAAGAGGUAGAUACTT against Ddx5 | active: -2.56 |
| GGGUUCUGGACAAGAUGAATT against Gpi1 | inactive: -0.148 |

| Sequence | z-score |
| --- | --- |
| GGCCUUUUCUCAAGGAGAATT against Cadps2 | inactive: -0.15 |
| CGGAAUUGGUGAUCUUUGUTT against Olfr1104 | inactive: -0.517 |
| GCAAACCAACAGAUGCUGCTT against Zfp184 | inactive: -0.117 |
| GACCAUAGAGAUUAUCGUGTT against Retnla | inactive: -0.172 |
| GGAAGGAAGUUAAUUCAUGTT against Zfp866 | inactive: 1.5 |
| GCCUCUAGUACAGACAACCTT against Rnf121 | inactive: 0.464 |
| GCACAGAGUUUUACCUUCUTT against Olfr811 | inactive: -0.818 |
| GGACAAUCCGUUCUUUCUGTT against Tgfb3 | inactive: 0.132 |
| GGAAGUUUGCUAGAGUUAATT against Taf13 | inactive: -1.87 |
| GGAAGUCAUCAAAGGCUUUTT against Fkbp1b | inactive: -0.117 |
| GGAGGUGAAGCUUCGAAUGTT against Slc25a10 | inactive: 0.052 |
| CCCUCCUAUUAGCGCAUUUTT against Osbpl2 | inactive: -0.239 |
| GGAGUGUCUCAGUUCAGUGTT against Ppp3r1 | inactive: -1.49 |
| GGUCAGAGGCCAACAUGGUTT against Oas1e | inactive: 1.24 |
| GCAAACUGUCCUAUCUUGGTT against Cacna1d | inactive: 0.84 |
| GGUGGAGCACAUGUUCAGCTT against Rfwd3 | inactive: 0.996 |
| GGAAAACAAGCCUAAGUCATT against Zfyve19 | inactive: 0.261 |
| GGAUCAUGUCAUCACAAAATT against Fzd3 | inactive: -0.319 |
| GCUCGAGAGAUCAAUUUAATT against Olfr568 | inactive: 0.241 |
| CCUAUUAAUAUGGAAAGUGTT against Arcn1 | inactive: 0.675 |
| CCGAGCAGGAUUGCAUAUATT against Cspg5 | inactive: 1.41 |
| GGGAGACUUUCCAUUUGGUTT against Ap3s1 | inactive: -1.43 |

| Sequence | z-score |
| --- | --- |
| GGUCAUGAUGGUAUUGUGCTT against Traf7 | inactive: -0.519 |
| GCGGUAAGAACGUGGAACUTT against Tent5b | inactive: 0.536 |
| GCAGAGGGUGCUUGUAACCTT against Hp | inactive: -0.314 |
| CCUACAAAACCCUCAUGCUTT against Kcnk18 | inactive: -0.67 |
| GGUGUGGAACGACAAACAGTT against Pla2g4f | active: -2.8 |
| CGUACACCGUAUUCAUGACTT against Rapgef5 | active: 3.6 |
| GGAGGAGAUCCUUCAUUACTT against Psap | inactive: -0.118 |
| CGCGCCCGUCAAAUUUGAUTT against Fam185a | inactive: 0.186 |
| GGAGCUGGUGGAUCUGAAGTT against Ubfd1 | inactive: 1.26 |
| GGACAGCCAAAUAGAAUAATT against Atrn | inactive: 0.522 |
| GCGAAUCAGCACUUAUGGATT against Cd2ap | active: 2.65 |
| GGUUUCAGAAAAUCAACCATT against Ttll13 | inactive: 0.11 |
| GGACCAUCAGUACCAGUUUTT against Trim28 | inactive: 0.295 |
| CGGUCUUCCCGUGGUUCAATT against Gm5114 | inactive: -0.992 |
| GGAAAAGAAAACAGGAGAUTT against Edn3 | inactive: 0.355 |
| GCACAACUUAUGACUGAAATT against Emc4 | inactive: 1.66 |
| GGCAAUACUGGAAGGGUGUTT against Eps15 | inactive: -1.03 |
| GCGGCGGAUAGUGUCACAUTT against Gmip | inactive: -0.661 |
| CGGAUUACAAACCAUAAAATT against Mex3b | inactive: -0.497 |
| GGCCAAGUGCUCACAGUUCTT against Arpc1b | inactive: 1.1 |
| GGUCAGAUUAUGCUUUAGATT against Mrgpre | inactive: -0.783 |
| GCUAUUCGUACAUAUGAUUTT against Efcc1 | inactive: -0.479 |

| Sequence | z-score |
| --- | --- |
| GGUCAAUCACUUAUAAUGUTT against Olfr771 | inactive: -0.573 |
| GGCUGUCUGUUAAGAUUAATT against Olfr181 | inactive: -1.56 |
| GCUCCGAUAUCAUUUGUUUTT against Crh | inactive: 0.262 |
| GGAAAGUGCAUCAUAGACATT against Thrb | inactive: 0.153 |
| GCUCCUGGCAUUAUUUUUUTT against Amz1 | inactive: 0.29 |
| GGUUUUGAAGCUGAAAAUATT against Zfp60 | inactive: 1.13 |
| CCCUAACAGCUGACGAUAATT against Tm7sf3 | inactive: -0.791 |
| GGGCACACUUCUCUUCAUUTT against Olfr152 | inactive: -0.187 |
| GGAAAGAUCUUAUAAUGUGTT against Zfp85 | inactive: 0.101 |
| GGAUCAUAGUGUCUUUCAGTT against Dnaja4 | inactive: 0.894 |
| GGAUCAAGUUGCCUCCGUUTT against Olfr1097 | inactive: 1.2 |
| CCAAGGACAACCCUAUCAGTT against Cdsn | inactive: -0.279 |
| UUGUAUUGAGUGGUUAAGCTT against 3110053B16Rik | inactive: 1.41 |
| GGUGAACAUCUUCCAUUAUTT against Krtap3-2 | inactive: 0.344 |
| GGGAUUUGUGAUUGAACUGTT against Fryl | inactive: 0.395 |
| GCCUUGGCGACAAAGCUAATT against Shtn1 | inactive: -0.222 |
| GGCCUACCACCUUCAGAAGTT against Rpl37 | active: 2.01 |
| CGAGGGUGAAAGCUCUUUUTT against Zfp248 | inactive: -0.702 |
| GGCCAUUCUUUGUCACCCATT against Os9 | active: -2.87 |
| CCGGGUCAUUAUCUAUCAATT against Puf60 | inactive: -0.383 |
| GCCGUCAGAUGACAACUAGTT against Lta | inactive: 0.481 |
| GGUUAUUUCGGGAGAUAAGTT against Nudcd1 | inactive: -0.351 |

| Sequence | z-score |
| --- | --- |
| GUCAAAUGGAGCAGAGCCATT against Cypt4 | inactive: -1.37 |
| GGGACCAUGAAUAAUGGCCTT against Snai1 | inactive: -0.0451 |
| GCUUCAAGUUCGUACGCCUTT against Eif2b1 | inactive: 1.52 |
| GGUUAGAAUAUGCAGAACATT against Arntl | inactive: -0.525 |
| GGUAUACCACUAUUCUCACTT against Olfr649 | inactive: 0.705 |
| GCUUUUUAUAUGUGCGCAGTT against Zfp691 | inactive: 0.693 |
| GCUACCUUUCUGAACAUACTT against Lcp2 | inactive: -0.083 |
| GGAUAUCAGGGUUGUUAAGTT against Txnl4b | inactive: 0.952 |
| CCGCGUUCACAUUCUCUAATT against Hfe | inactive: -0.139 |
| CCCAGAGAACUAGAAACGATT against 9430097D07Rik | inactive: -0.273 |
| GGUCUUUCCUAAUAAGCAGTT against F830208F22Rik | inactive: 1.22 |
| CGAGAUUUGGAAUGCCCUGTT against Fez2 | inactive: 0.25 |
| GGUCAUAGAAGGGUUCAGCTT against Sbsn | inactive: 0.322 |
| GGAAGAAUUUCGUACUAUGTT against Papolb | inactive: 0.858 |
| GGACCCAGCAGUCAAGAUATT against 9930038B18Rik | inactive: 0.0416 |
| GCUACCCAUGAGCUUUCGATT against S100a3 | inactive: 0.495 |
| CCACCUUCCAUGGUCAGUATT against Xpo4 | inactive: -0.741 |
| GGUGUUCGUUUCAUCUACATT against Hnrnph2 | inactive: 0.299 |
| GGCAGCACCAUCGUCUAAUTT against 4930432E11Rik | inactive: 0.622 |
